Results are given in words; binding and its absence hold for the method and conditions named. Binding seen in cells or lysates may run through a third protein. Some binding calls cover weakened binding; strength is not graded here. Sequences can lack the tags named with a protein.
Tests used:
[1] = target: T1, LAP-tagged NCBP2 (Nuclear Cap-Binding Protein 2) (UniProt P52298); experiment: co-IP; LAP-tagged bait captured with anti-GFP antibodies on Dynabeads from HeLa cell extracts (20 mM HEPES pH 7.4, 0.5% Triton X-100, 150 mM NaCl), 4°C, 30 min; western blot; with or without RNase A/T1 on the beads; cells treated with siLuc, siNCBP3, siPHAX, siZC3H18, siEIF4A3, siRBM8A, siALYREF or siDDX39B
T1 sequence: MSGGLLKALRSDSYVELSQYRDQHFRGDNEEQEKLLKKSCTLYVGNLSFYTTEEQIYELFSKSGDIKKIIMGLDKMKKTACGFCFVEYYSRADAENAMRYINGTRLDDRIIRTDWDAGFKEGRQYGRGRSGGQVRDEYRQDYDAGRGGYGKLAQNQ

By UniProt entry, the sequences of proteins in these tests, tags left out.
UniProt Q13838: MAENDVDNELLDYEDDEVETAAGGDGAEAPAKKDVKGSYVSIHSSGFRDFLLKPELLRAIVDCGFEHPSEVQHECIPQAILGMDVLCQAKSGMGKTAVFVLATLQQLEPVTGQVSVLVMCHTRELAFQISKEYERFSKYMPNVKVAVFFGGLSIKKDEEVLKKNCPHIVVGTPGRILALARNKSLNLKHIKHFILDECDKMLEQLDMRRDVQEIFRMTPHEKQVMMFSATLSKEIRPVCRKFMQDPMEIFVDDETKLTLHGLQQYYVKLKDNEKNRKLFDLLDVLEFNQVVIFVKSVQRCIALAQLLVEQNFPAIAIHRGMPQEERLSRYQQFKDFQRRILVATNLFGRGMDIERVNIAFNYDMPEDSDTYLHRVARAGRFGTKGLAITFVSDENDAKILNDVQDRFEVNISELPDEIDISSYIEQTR

[2] = target: T2, LAP-tagged NCBP3 (C17orf85) (UniProt Q53F19); experiment: as above
T2 sequence: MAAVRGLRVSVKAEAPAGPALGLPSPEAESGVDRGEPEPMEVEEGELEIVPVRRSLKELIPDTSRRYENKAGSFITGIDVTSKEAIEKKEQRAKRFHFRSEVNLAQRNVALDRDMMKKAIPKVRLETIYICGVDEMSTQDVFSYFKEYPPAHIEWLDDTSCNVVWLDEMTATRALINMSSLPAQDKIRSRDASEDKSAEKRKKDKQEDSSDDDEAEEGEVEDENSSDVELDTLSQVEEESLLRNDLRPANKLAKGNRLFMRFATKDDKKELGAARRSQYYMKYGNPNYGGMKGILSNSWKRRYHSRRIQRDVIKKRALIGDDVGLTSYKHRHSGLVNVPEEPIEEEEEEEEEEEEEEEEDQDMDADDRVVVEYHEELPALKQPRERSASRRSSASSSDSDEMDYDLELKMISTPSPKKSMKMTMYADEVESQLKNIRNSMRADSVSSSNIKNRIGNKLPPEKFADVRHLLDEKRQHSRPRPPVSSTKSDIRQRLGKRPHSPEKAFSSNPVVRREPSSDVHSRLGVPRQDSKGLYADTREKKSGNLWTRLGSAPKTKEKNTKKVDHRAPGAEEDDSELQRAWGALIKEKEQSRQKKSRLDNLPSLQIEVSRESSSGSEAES

| Substance | binding [1] | binding [2] |
| --- | --- | --- |
| EIF4A3 (from UniProt P38919 1-411) | binds |  |
| MAGOH (from UniProt P61326 1-146) | binds |  |
| DDX39B (from UniProt Q13838 1-428) | binds | binds |
| MLN51/CASC3/BTZ (from UniProt O15234 1-703) | binds |  |

Reference: paper PMC7544205
